Source: PubChem BioAssay AID1224828 (NIAID, 2016)
Test: 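Regulators linking TLR4 signalling to p65 nuclear translocation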 (primary screen). Cell system: mouse RAW264.7 G9 macrophage reporter cells (GFP-p65, Tnf promoter-mCherry). Reagent: siRNA pool against mouse genes, 100 nM. Timing: 2 days siRNA transfection, then 40 min LPS before fixation. Treatment: LPS (Salmonella minnesota R595) at 10 ng/ml. Measurement: 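Microscopy ratio of nuclear to perinuclear-ring GFP-p65 signal, scaled to the plate median; gene score is the average of two replicate robust z-scores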. Direction: p65 translocation robust z-score: higher = more nuclear NF-kappaB p65 after LPS than the plate median; nuclear/cytoplasmic p65 ratio: higher = more nuclear NF-kappaB p65. Hit rule: 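Called active when z exceeds 3.3 or falls under -1.56 (median of Tlr4 controls), giving activity score of at least 50; no calls for control wells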. Meaning of the calls: active = hit (p65 shift raised or lowered); inactive = no clear change.
In all, the deposit lists about 17,000 reagents; this is a part drawn at random. Of all reagents, 762 (4.5%) are marked active. 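Active calls include both raised and lowered p65 entry, mostly lowered; wells with fewer than 50 cells lack a z-score.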 The raw values are shown without normalisation. A number with no mark means an inactive call.

target gene	p65 translocation robust z-score	nuclear/cytoplasmic p65 ratio, rep 1	nuclear/cytoplasmic p65 ratio, rep 2	low cell count flag
Nek8 (NIMA (never in mitosis gene a)-related expressed kinase 8)		1.81	1.26	fewer than 50 cells per well; well left out of scoring
R3hdm2 (R3H domain containing 2)	-1.56	1.28	1.28	enough cells to score
Agap1 (ArfGAP with GTPase domain, ankyrin repeat and PH domain 1)	2.62	1.82	2.39	enough cells to score
Sri (sorcin)	1.73	1.68	1.4	enough cells to score
Fer (FER tyrosine kinase)	0.43	1.69	1.49	enough cells to score
Asb3 (ankyrin repeat and SOCS box-containing 3)	0.25	1.51	1.67	enough cells to score
Rbm5 (RNA binding motif protein 5)	-1.67 (active)	1.26	1.3	enough cells to score
Or51f23b (olfactory receptor family 51 subfamily F member 23B)		1.28	1.23	fewer than 50 cells per well; well left out of scoring
Akr1d1 (aldo-keto reductase family 1, member D1)	0.15	1.64	1.64	enough cells to score
Zfp52 (zinc finger protein 52)	0.73	1.5	1.34	enough cells to score
Lrp12 (low density lipoprotein-related protein 12)	-0.66	1.49	1.54	enough cells to score
Art2a (ADP-ribosyltransferase 2a)	0.91	1.64	1.74	enough cells to score
A830031A19Rik (RIKEN cDNA A830031A19 gene)	0.73	1.34	1.63	enough cells to score
Ubxn7 (UBX domain protein 7)		1.34	1.17	fewer than 50 cells per well; well left out of scoring
Alg11 (ALG11 alpha-1,2-mannosyltransferase)	-0.63	1.54	1.56	enough cells to score
Birc3 (baculoviral IAP repeat-containing 3)	0.29	1.71	1.61	enough cells to score
Cyb5r4 (cytochrome b5 reductase 4)	1.27	1.62	1.49	enough cells to score
Eif3g (eukaryotic translation initiation factor 3, subunit G)	-0.6	1.43	1.25	enough cells to score

Called active (from the list above):
target gene	p65 translocation robust z-score	nuclear/cytoplasmic p65 ratio, rep 1	nuclear/cytoplasmic p65 ratio, rep 2	low cell count flag
Rbm5 (RNA binding motif protein 5)	-1.67 (active)	1.26	1.3	enough cells to score

More results follow:
target gene	p65 translocation robust z-score	nuclear/cytoplasmic p65 ratio, rep 1	nuclear/cytoplasmic p65 ratio, rep 2	low cell count flag
Shd (src homology 2 domain-containing transforming protein D)		1.11	1.27	fewer than 50 cells per well; well left out of scoring
Chrm2 (cholinergic receptor, muscarinic 2, cardiac)	-1.14	1.4	1.36	enough cells to score
Dach1 (dachshund family transcription factor 1)	2.2	1.83	1.59	enough cells to score
Or8d2 (olfactory receptor family 8 subfamily D member 2)	-0.61	1.33	1.2	enough cells to score
Noxa1 (NADPH oxidase activator 1)	1.23	1.96	1.66	enough cells to score
Klf13 (Kruppel-like transcription factor 13)	0.43	1.49	1.48	enough cells to score
Zpbp (zona pellucida binding protein)		1.23	1.27	fewer than 50 cells per well; well left out of scoring
Gpx6 (glutathione peroxidase 6)	2.11	2	1.81	enough cells to score
Pcdhga7 (protocadherin gamma subfamily A, 7)	-0.32	1.4	1.2	enough cells to score
Lix1 (limb and CNS expressed 1)	2.45	2.11	1.89	enough cells to score
Or11a4 (olfactory receptor family 11 subfamily A member 4)	2.05	1.68	1.51	enough cells to score
Elfn1	-0.84	1.28	1.4	enough cells to score
Dgat2 (diacylglycerol O-acyltransferase 2)	0.5	1.59	1.67	enough cells to score
Atat1 (alpha tubulin acetyltransferase 1)		0.591	1.27	fewer than 50 cells per well; well left out of scoring
Cmas (cytidine monophospho-N-acetylneuraminic acid synthetase)	-0.44	1.49	1.75	enough cells to score
Crot (carnitine O-octanoyltransferase)	-0.38	1.52	1.25	enough cells to score
1700024B05Rik (RIKEN cDNA 1700024B05 gene)	1.16	1.44	1.57	enough cells to score
Pde1a (phosphodiesterase 1A, calmodulin-dependent)	0.05	1.35	1.41	enough cells to score
Mrpl33 (mitochondrial ribosomal protein L33)	-2.21 (active)	1.45	1.24	enough cells to score
Git2 (GIT ArfGAP 2)	0.11	1.5	1.62	enough cells to score
H2-Ea (histocompatibility 2, class II antigen E alpha)	1.32	1.63	1.52	enough cells to score
Zfp275 (zinc finger protein 275)	0.53	1.44	1.34	enough cells to score
